Experimental data: the supplement of paper PMC9015667
Where a name gives a salt, the structure may show the parent alone. Some of the results follow. Many values rest on one well or one pass, so single values are uncertain.

Key:
Assay in all cases: reduction in cell viability relative to untreated/vehicle; higher = more growth inhibition
Conditions in all cases: 200 nM; 72 h
M229P = system: M229P (parental melanoma line)
M229R = system: M229R (matched melanoma line resistant to BRAF inhibitors)
M238P = system: M238P (parental melanoma line)
M238R = system: M238R (matched melanoma line resistant to BRAF inhibitors)
M249P = system: M249P (parental melanoma line)
M249R = system: M249R (matched melanoma line resistant to BRAF inhibitors)
UACC62P = system: UACC62P (parental melanoma line)
UACC62R = system: UACC62R (matched melanoma line resistant to BRAF inhibitors)

Measured: reduction in cell viability

C[C@@H](O[C@H]1OCCN(Cc2n[nH]c(=O)[nH]2)[C@H]1c1ccc(F)cc1)c1cc(C(F)(F)F)cc(C(F)(F)F)c1 [Aprepitant]
1.5%: UACC62P
< 0%: all other assays above

Nc1nc(-c2nn(Cc3ccccc3F)c3ncccc23)nc(N)c1N1CCOCC1
< 0%: all assays above

CC(=O)OCC(=O)[C@@]1(O)CC[C@H]2[C@@H]3CCC4=CC(=O)CC[C@]4(C)[C@H]3C(=O)C[C@@]21C [Cortisone acetate]
17.1%: M249R
< 0%: all other assays above

Two records drawn at random from the list so far, as already listed:
Nc1nc(-c2nn(Cc3ccccc3F)c3ncccc23)nc(N)c1N1CCOCC1
< 0%: all assays above

C[C@@H](O[C@H]1OCCN(Cc2n[nH]c(=O)[nH]2)[C@H]1c1ccc(F)cc1)c1cc(C(F)(F)F)cc(C(F)(F)F)c1 [Aprepitant]
1.5%: UACC62P
< 0%: all other assays above

Later entries

CNC1CCC(N(Cc2cccc(-c3ccncc3)c2)C(=O)c2sc3c(F)ccc(F)c3c2Cl)CC1 (stereo not given)
0.81%: M238R
< 0%: all other assays above

CCC[C@H](NC(=O)/C(C#N)=C/c1cccc(Br)n1)c1ccccc1 [Degrasyn]
0.51%: M249R
11.3%: UACC62P
< 0%: all other assays above

CCCCCCCc1ccc(CCc2cccc(O)c2C(=O)O)cc1
< 0%: all assays above

Cc1ccc(O)c([C@H](CCN(C(C)C)C(C)C)c2ccccc2)c1 [Tolterodine tartrate]
< 0%: all assays above

CCc1nc(-c2cccc(C)c2)c(-c2ccnc(NC(=O)c3ccccc3)c2)s1
< 0%: all assays above

Cn1c(=O)c(F)c(Nc2ccc(I)cc2F)c2c(=O)n(C[C@@H](O)CO)cnc21
35%: M229P
34.3%: M238P
67%: M249R
< 0%: M238R
39.9%: UACC62R
79.6%: M249P
62.2%: UACC62P
11.8%: M229R

N=C(NCCCCCCNC(=N)NC(=N)Nc1ccc(Cl)cc1)NC(=N)Nc1ccc(Cl)cc1 [Chlorhexidine]
6.59%: M229R
< 0%: all other assays above

O=c1cc(-c2ccc(O)cc2)oc2cc(O)cc(O)c12 [Apigenin]
< 0%: all assays above

CC(C)[C@H](CO)Nc1nc(Nc2cccc(Cl)c2)c2ncn(C(C)C)c2n1 [Purvalanol A]
6.7%: M229R
< 0%: all other assays above

CCCCCCCCCCCCCCCC(=O)OC[C@@H](NC(=O)C(Cl)Cl)[C@H](O)c1ccc([N+](=O)[O-])cc1 [Chloramphenicol palmitate]
< 0%: all assays above

Cn1c(=O)c2c(ncn2CC(O)CO)n(C)c1=O (stereo not given) [Dyphylline]
1.71%: UACC62P
7.45%: M249R
< 0%: all other assays above

O=C1CCc2ccc(OCCCCN3CCN(c4cccc(Cl)c4Cl)CC3)cc2N1 [Aripiprazole]
< 0%: all assays above

CCC[C@H](N[C@@H](C)C(=O)N1[C@H](C(=O)O)C[C@@H]2CCCC[C@@H]21)C(=O)OCC [Perindopril]
< 0%: all assays above

Cc1cc2c(F)c(Oc3ncnn4cc(OC[C@@H](C)O)c(C)c34)ccc2[nH]1 [Brivanib]
< 0%: all assays above

O=C(O)CSCC(=O)NC1CCSC1=O (stereo not given) [Erdosteine]
< 0%: all assays above

Nc1ccccc1NC(=O)c1ccc(CNC(=O)OCc2cccnc2)cc1 [Entinostat]
0.04%: M249R
2.83%: UACC62R
7.41%: M238P
< 0%: all other assays above

CC(C)(N)C(=O)N[C@H](COCc1ccccc1)C(=O)N1CCC2(CC1)CN(S(C)(=O)=O)c1ccccc12 [Ibutamoren mesilate]
< 0%: all assays above

CCC(=O)OCC(=O)[C@@]1(OC(=O)CC)[C@@H](C)C[C@H]2[C@@H]3CCC4=CC(=O)C=C[C@]4(C)[C@@]3(F)[C@@H](O)C[C@@]21C [Betamethasone dipropionate]
2.77%: UACC62P
< 0%: all other assays above

Cc1ncc([N+](=O)[O-])n1CC(C)O (stereo not given) [Secnidazole]
< 0%: all assays above

CCOC(=O)[C@H]1O[C@@H]1C(=O)N[C@@H](CC(C)C)C(=O)NCCC(C)C [Aloxistatin]
3.75%: UACC62P
< 0%: all other assays above

C=C1C(=O)O[C@@H]2/C=C(\C)CC/C=C(\C)CC[C@@H]12 [Costunolide]
5.3%: M249R
< 0%: all other assays above

Cc1cc(C(C)(C)C)cc(C)c1CC1=NCCN1 [Xylometazoline hydrochloride]
< 0%: all assays above

Cc1[nH]c(=O)c(C#N)cc1-c1ccncc1 [Milrinone]
< 0%: all assays above

CC1(COc2ccc3c(c2)ncn3-c2ccc3cccc(N4CCC(N)CC4)c3n2)COC1 [Crenolanib]
< 0%: all assays above

COc1ccc2c(c1)CCC1C2CCC2(C)C(NCCCCCCN3C(=O)C=CC3=O)CCC12 (stereo not given)
< 0%: all assays above

O=C1CCCC(=O)C1C(=O)c1ccc(C(F)(F)F)cc1[N+](=O)[O-] [Nitisinone]
< 0%: all assays above

Clc1ccc(C2(c3ccc(-c4cn[nH]c4)cc3)CCNCC2)cc1
14.9%: M229R
7.3%: M238R
< 0%: all other assays above

O=C(O)C(=O)O.[NH-][C@@H]1CCCC[C@H]1[NH-].[Pt+2] [Oxaliplatin]
9.06%: UACC62P
< 0%: all other assays above

O=C(Cc1ccc(-c2ccc(OCCN3CCOCC3)cc2)cn1)NCc1ccccc1
45.5%: M249R
54.9%: M229R
47.5%: UACC62P
84.3%: UACC62R
60.6%: M238R
63.8%: M238P
34.5%: M229P
51.6%: M249P

O=C(O)c1ccccc1C(=O)Nc1ccc(-c2ccccc2)cc1 [Kartogenin]
< 0%: all assays above

N#Cc1ccc(C(c2ccc(C#N)cc2)n2cncn2)cc1 [Letrozole]
< 0%: all assays above

O=C(Nc1cccc(Nc2ncc(Br)c(NCCc3cnc[nH]3)n2)c1)N1CCCC1
3.52%: M238P
13.7%: M249R
10.1%: UACC62P
< 0%: all other assays above

COc1cc(O)c2c(c1)C(=O)c1c(O)c(C)cc(O)c1C2=O [Parietin]
< 0%: all assays above

Cc1cccc(CN2CCN(C(c3ccccc3)c3ccc(Cl)cc3)CC2)c1 (stereo not given) [Meclizine hydrochloride]
9.61%: UACC62R
1.95%: M249R
< 0%: all other assays above

Nc1nc2c(ncn2COC(CO)CO)c(=O)[nH]1 [Ganciclovir]
0.87%: UACC62P
< 0%: all other assays above

CN(C)C(=O)C(CCN1CCC(O)(c2ccc(Cl)cc2)CC1)(c1ccccc1)c1ccccc1 [Loperamide]
< 0%: all assays above

Cn1c(=O)c2[nH]cnc2n(C)c1=O [Theophyllamine]
< 0%: all assays above
